# Source: article PMC7862700
# The list shows a part of the results. The exact form of the protein is not confirmed.
# Molecular target: T1, ETS1 (UniProt P14921)
# T1 sequence: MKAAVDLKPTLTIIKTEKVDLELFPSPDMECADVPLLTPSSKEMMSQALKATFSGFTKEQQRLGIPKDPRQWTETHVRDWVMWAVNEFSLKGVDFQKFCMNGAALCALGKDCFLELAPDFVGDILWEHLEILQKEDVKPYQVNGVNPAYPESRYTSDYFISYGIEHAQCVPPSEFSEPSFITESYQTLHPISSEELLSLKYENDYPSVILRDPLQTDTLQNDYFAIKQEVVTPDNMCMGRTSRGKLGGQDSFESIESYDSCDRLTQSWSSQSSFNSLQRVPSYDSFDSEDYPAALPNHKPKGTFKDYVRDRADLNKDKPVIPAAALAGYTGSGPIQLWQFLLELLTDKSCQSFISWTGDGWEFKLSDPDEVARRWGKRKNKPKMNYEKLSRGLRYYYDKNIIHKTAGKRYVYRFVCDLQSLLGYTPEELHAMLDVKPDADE
# Test: DAPPL (digital affinity profiling via proximity ligation, sequencing)
# Conditions: 10 mM Tris-HCl pH 7.5, 50 mM NaCl, 1 mM DTT, 4% glycerol, room temperature, 30 min; GST-TFs on glutathione beads, 16-mer random dsDNA library, 0.1% …; high values mean tight binding; double strand, one strand shown; scale: fold enrichment (6-mer frequency, TF over GST control)
row,Sequence,binding signal
1,TCCCAG,1.06
2,TAATCC,1.21
3,AAGATG,1.1
4,CGGTTA,1.01
5,TCAAAG,1.11
6,AAACTA,1.36
7,TTTCAT,1.17
8,CCGGCC,1.15
9,CCTACC,1.32
10,TAAGCC,1.15
11,GGTTCA,1.08
12,GCTTCT,1.56
13,ATAAGA,1.01
14,ACGTTT,1.25
15,CCTCGC,1.55
16,TGGACA,0.99
17,ACTCAA,1.2
18,TTCTAT,1.4
19,CGGTAT,1.04
20,CGGCCT,1.1

row,Sequence,binding signal
1,TTGCAA,1.24
2,CCTGTA,1.35
3,CCCGTC,1.02
4,TCTATA,1.15
5,TGAACA,1.28
6,CATTGT,1.14
7,CTGCTT,1.6
8,AATACG,1.26
9,GGGCTC,1.03
10,CGCCTG,1.05
11,AATTAC,1.23
12,TTCTAA,1.19
13,CCACTG,1.44
14,GATGTA,1.4
15,GGAAAA,1.24
16,TCGCAT,0.952
17,ATAAGG,1.09
18,ATAGAC,0.989
19,AAAAAT,1.38
20,TGGTGC,1.14

# 2 entries drawn at random from those above, as already listed:
row,Sequence,binding signal
1,TTGCAA,1.24
4,TCTATA,1.15
